Measured values taken from US20180296630A1, “METHODS AND COMPOSITIONS FOR PREVENTING OR TREATING OPHTHALMIC CONDITIONS” (Stealth BioTherapeutics Corp, priority 2012, published 2018).
At least one read-out could not be matched to a standard name with certainty.

Assay: Ocular pharmacokinetics and disposition of total radioactivity after topical instillation or subcutaneous dosing
Type: in vivo, New Zealand White rabbits
Conditions: topical instillation 1% solution, 40 μL/eye
Experimental: Sixteen New Zealand White rabbits were dosed with a formulation consisting of 10 mg/mL of ^14C-labeled D-Arg-2′,6′-Dmt-Lys-Phe-NH2. Animals were at least twelve weeks old and weighed 2.30-3.43 kg at the time of dosing. Animals were randomized to treatment groups according to Table 7.
Dosing solutions were prepared by combining 14.70 mg (correction factor of 0.782) of non-radiolabeled D-Arg-2′,6′-Dmt-Lys-Phe-NH2, and 17.49 mg (correction factor of 0.770) of ^14C-labeled D-Arg-2′,6′-Dmt-Lys-Phe-NH2, and dissolving in 2.5 mL of 0.01M PBS, pH 7.4 to achieve a concentration of 9.97 mg/mL (1%, free peptide) and a radiolabeled concentration of […]. Three aliquots (100 μL) of dosing solution were brought to a volume of 25 mL with saline. Duplicate 100 μL aliquots of the diluted solutions were quantified for radioactivity by liquid scintillation counting (LSC). […] The dosing solutions were stored at 2-8° C. for up to 24 hours prior to use, or at −70° C. for future use.
On Day 1, 40 μL of the 1% (10 mg/mL) D-Arg-2′,6′-Dmt-Lys-Phe-NH2 dosing solution was topically instilled into both eyes of each animal in Groups A-G. Each animal in Groups H-I received a single subcutaneous dose of 0.1 mL/kg (1 mg/kg) of the dosing solution into the dorsal scapular region. At the designated time, each animal was anesthetized and blood was collected via cardiac puncture. Animals were euthanized following cardiac puncture. Approximately 3±0.5 mL of whole blood was collected in a K2EDTA tube. Four aliquots (100 μL) were directly transformed to combustion cones. Blood aliquots were stored at ≤−20° C. until analyzed.
For Groups A-G, the right globe and one left globe from each group (N=3 globes) were collected and necropsied. The remaining left eye (except for Group G) was collected for possible 3D-QWBA (Quantitative whole body autoradiography) analysis and the conjunctiva remained intact to the eyes. For Groups H-I, both globes were collected from each animal and necropsied. All eyes designated for necropsy were rinsed with normal saline and aqueous humor samples were collected. The globes were enucleated and frozen in liquid nitrogen and stored at ≤−80° C. prior to dissection. The vitreous humor, cornea, conjunctiva, iris/ciliary body, lens, retina, choroid, and sclera were collected from the appropriate eye, weighed, and stored at ≤−20° C. prior to analysis. Aqueous humor samples were also stored at ≤−20° C. until analyzed.
All radioactivity measurements were performed using a Beckman Liquid Scintillation Spectrometer. Two blood aliquots were combusted and two aliquots were reserved for combustion if needed. From each eye, the cornea, conjunctiva, iris/ciliary body, lens, retina, choroid, and sclera from each eye were weighed into combustion cones and combusted. Duplicate aliquots of each aqueous humor sample and each vitreous humor sample were transferred to scintillation vials using Insta-Gel as the scintillation fluid, and the amount of radioactivity was determined.

D-Arg-2′,6′-Dmt-Lys-Phe-NH2 showed a Cmax (aqueous humor) of 314 ng-equi/g, a Cmax (blood) of 116 ng-equi/g and a Cmax (choroid, listed as 14C-D-Arg-2′,6′-Dmt-Lys-Phe-NH2) of 208 ng-equi/g. The Cmax (choroid, listed as 14C-labeled D-Arg-2′,6′-Dmt-Lys-Phe-NH2) was 208±95 ng-equi/g, the Cmax (conjunctiva, listed as 14C-D-Arg-2′,6′-Dmt-Lys-Phe-NH2) was 7425 ng-equi/g and the Cmax (conjunctiva, listed as 14C-labeled D-Arg-2′,6′-Dmt-Lys-Phe-NH2) was 7425±5344 ng-equi/g. For the same substance, the Cmax (cornea, listed as 14C-D-Arg-2′,6′-Dmt-Lys-Phe-NH2) was 1976 ng-equi/g, the Cmax (cornea, listed as 14C-labeled D-Arg-2′,6′-Dmt-Lys-Phe-NH2) was 1976±359 ng-equi/g and the Cmax (iris/ciliary body) was 343 ng-equi/g. For the same substance, the Cmax (lens, listed as 14C-D-Arg-2′,6′-Dmt-Lys-Phe-NH2) was 185 ng-equi/g, the Cmax (lens, listed as 14C-labeled D-Arg-2′,6′-Dmt-Lys-Phe-NH2) was 185±75 ng-equi/g and the Cmax (retina, listed as 14C-D-Arg-2′,6′-Dmt-Lys-Phe-NH2) was 97.0 ng-equi/g. For the same substance, the Cmax (retina, listed as 14C-labeled D-Arg-2′,6′-Dmt-Lys-Phe-NH2) was 96.7±22.7 ng-equi/g, the Cmax (sclera, listed as 14C-D-Arg-2′,6′-Dmt-Lys-Phe-NH2) was 917 ng-equi/g and the Cmax (sclera, listed as 14C-labeled D-Arg-2′,6′-Dmt-Lys-Phe-NH2) was 917±466 ng-equi/g. For the same substance, the Cmax (vitreous humor) was 20.0 ng-equi/g.
